Source: patent US20230052369A1
Substitutions are numbered along the chain they refer to. These are yes or no findings as the source states them, for the method shown. Some entries that bind do so weakly or less than the wild type.

Chains of the proteins cited; added tags and fusions are not shown. Residues count along the entry.
UniProt P15328, residues 25-234: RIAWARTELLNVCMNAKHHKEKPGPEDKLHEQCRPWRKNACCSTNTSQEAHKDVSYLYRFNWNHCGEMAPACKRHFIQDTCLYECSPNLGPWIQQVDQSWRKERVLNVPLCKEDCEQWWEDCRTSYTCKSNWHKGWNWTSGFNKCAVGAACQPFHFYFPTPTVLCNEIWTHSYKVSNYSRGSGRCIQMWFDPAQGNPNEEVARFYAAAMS

B1: v29677 (scFv)
scFv: DIQMTQSPSSLSASVGDRVTITCQASQSIYSSLAWYQQKPGKAPKLLIYDASHLASGVPSRFSGSRYGTDFTLTISSVQPEDFATYYCQGGWYSSAATYVPNTFGGGTKVEVKGGSGGGSGGGSGGGSGGGSGEVQLVESGGGLVQPGGSLRLSCAASGFTISNNYYMCWVRQAPGKGLEWIACIYGGISGRTYYADSAKGRFTISKDSSNTVYLQMNSLRAEDTAVYYCVRGYVGTSNLWGQGTLVTVSS
B2: v29684 (scFv)
scFv: B1 scFv with G106C, G178C
B3: v29680 (scFv)
scFv: B1 scFv
B4: v29681 (scFv)
scFv: EVQLVESGGGLVQPGGSLRLSCAASGFTISNNYYMCWVRQAPGKGLEWIACIYGGISGRTYYADSAKGRFTISKDSSNTVYLQMNSLRAEDTAVYYCVRGYVGTSNLWGQGTLVTVSSGGSGGGSGGGSGGGSGGGSGDIQMTQSPSSLSASVGDRVTITCQASQSIYSSLAWYQQKPGKAPKLLIYDASHLASGVPSRFSGSRYGTDFTLTISSVQPEDFATYYCQGGWYSSAATYVPNTFGGGTKVEVK
B5: v29685 (scFv)
scFv: B4 scFv with G45C, G244C
B6: v29679 (scFv)
scFv: EVQLVESGGGLVQPGGSLRLSCAASGFTISNNYYMCWVRQAPGKGLEWIACIYGGISGRTYYADSAKGRFTISKDSSNTVYLQMNSLRAEDTAVYYCVRGYVGTSNLWGQGTLVTVSSGGGGSGGGGSGGGGSDIQMTQSPSSLSASVGDRVTITCQASQSIYSSLAWYQQKPGKAPKLLIYDASHLASGVPSRFSGSRYGTDFTLTISSVQPEDFATYYCQGGWYSSAATYVPNTFGGGTKVEVK
B7: v29683 (scFv)
scFv: B6 scFv with G45C, G239C
B8: v29676 (scFv)
scFv: DIQMTQSPSSLSASVGDRVTITCQASQSIYSSLAWYQQKPGKAPKLLIYDASHLASGVPSRFSGSRYGTDFTLTISSVQPEDFATYYCQGGWYSSAATYVPNTFGGGTKVEVKGGGGSGGGGSGGGGSEVQLVESGGGLVQPGGSLRLSCAASGFTISNNYYMCWVRQAPGKGLEWIACIYGGISGRTYYADSAKGRFTISKDSSNTVYLQMNSLRAEDTAVYYCVRGYVGTSNLWGQGTLVTVSS
B9: v29682 (scFv)
scFv: B8 scFv with G106C, G173C
B10: v29678 (scFv)
scFv: B8 scFv
B11: v23804 (antibody, human IgG1, kappa, V domains shown)
VH: EVQLVESGGGLVQPGGSLRLSCAASGFTISNNYYMCWVRQAPGKGLEWVSCIYGGISGRTYYADSVKGRFTISKDNSKNTLYLQMNSLRAEDTAVYYCVRGYVGTSNLWGQGTLVTVSS
VL: DIQMTQSPSSLSASVGDRVTITCQASQSIYSSLAWYQQKPGKAPKLLIYDASHLASGVPSRFSGSRYGTDFTLTISSVQPEDFATYYCQGGWYSSAATYVPNTFGGGTKVEVKR
B12: v23809 (antibody, human IgG1, kappa, V domains shown)
VH: B11 VH
VL: B11 VL with R66G, Y67S, F83A
B13: v23813 (antibody, human IgG1, kappa, V domains shown)
VH: B11 VH with V49I, S50A, S65W, V66A, N76S, L81V
VL: B11 VL with R66G, Y67S, F83A
B14: v23807 (antibody, human IgG1, kappa, V domains shown)
VH: EVQLVESGGGLVQPGGSLRLSCAASGFTISNNYYMCWVRQAPGKGLEWIACIYGGISGRTYYADSAKGRFTISKDSSNTVYLQMNSLRAEDTAVYYCVRGYVGTSNLWGQGTLVTVSS
VL: B11 VL
B15: v23817 (antibody, human IgG1, kappa, V domains shown)
VH: B14 VH
VL: B11 VL with F83A
B16: v23810 (antibody, human IgG1, kappa, V domains shown)
VH: B11 VH with V49I, S50A, V66A, L81V
VL: B11 VL with R66G, Y67S, F83A
B17: v23806 (antibody, human IgG1, kappa, V domains shown)
VH: B11 VH with V49I, S50A, V66A, N76S, L81V
VL: B11 VL
B18: v23814 (antibody, human IgG1, kappa, V domains shown)
VH: B11 VH
VL: B11 VL with F83A
B19: v23816 (antibody, human IgG1, kappa, V domains shown)
VH: B11 VH with V49I, S50A, V66A, N76S, L81V
VL: B11 VL with F83A
B20: v17721 (scFv)
scFv: QVQLVQSGAEVVKPGASVKISCKASGYTFTGYFMNWVKQSPGQSLEWIGRIHPYDGDTFYNQKFQGKATLTVDKSSNTAHMELLSLTSEDFAVYYCTRYDGSRAMDYWGQGTTVTVSSGGGGSGGGGSGGGGSDIVLTQSPLSLAVSLGQPAIISCKASQSVSFAGTSLMHWYHQKPGQQPRLLIYRASNLEAGVPDRFSGSGSKTDFTLTISPVEAEDAATYYCQQSREYPYTFGGGTKLEIK

The binders below were run against recombinant His-tagged human FRα (human) (UniProt P15328) (assay: BLI).

Row | binding | Binder
1 | binds | B1
2 | binds | B2
3 | binds | B3
4 | binds | B4
5 | binds | B5
6 | binds | B6
7 | binds | B7
8 | binds | B8
9 | binds | B9
10 | binds | B10

Each binder was assayed against recombinant His-tagged human FRα (human) (UniProt P15328) (assay: BLI, supernatant).

Row | binding | Binder
11 | binds | B11
12 | binds | B12
13 | binds | B13
14 | binds | B14
15 | binds | B15
16 | binds | B16
17 | binds | B17
18 | binds | B18
19 | binds | B19

These binders were tested against recombinant His-tagged human FRα (human) (UniProt P15328) (assay: BLI, supernatant and purified).

Row | binding | Binder
20 | binds | B11
21 | binds | B14
22 | binds | B15
23 | binds | B17
24 | binds | B18

These binders were tested against full-length human FRα, on 293E cells (human) (UniProt P15328) (assay: flow cytometry, 293E cells expressing FRα).

Row | binding | Binder
25 | binds | B20
